{
  "source": "PubChem BioAssay AID1347423",
  "about": "(Functional Genomics Laboratory (NCATS/FGL), 2020)",
  "note": "Screen size: about 52,000 sequences; about 210 (0.4%) were called active.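 How the source made its calls: active means gene whose silencing raises cell survival under the drug, median off-target-corrected z-score across its silencing RNAs 2 or more; inactive means the rest.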 The list shows a part of the results.",
  "data": [
    {"assay": "Resistance to Poly (ADP-Ribose) Polymerase inhibitor: Gene Identification via Genome-wide siRNA Screen", "conditions": "mouse BRCA2 R2336H ES cells, olaparib, CellTiter-Glo viability; hits give high values", "in_short": "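Genome-wide siRNA screen (3 siRNAs/gene, 20 nM) in mouse ES cells carrying hypomorphic BRCA2 R2336H; olaparib 500 nM added 48 h post-transfection, CellTiter-Glo viability 72 h later. Normalized to plate-median negative control; MAD z-scores, gene median, seed-adjusted.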", "values": [
      {"sequence": "CCACCGUUUCGUACAUAAATT against Gcat", "z-score": "inactive: -0.305"},
      {"sequence": "GCUGAUCUAAGGCUCAAAATT against F830005K03Rik", "z-score": "inactive: -0.743"},
      {"sequence": "GCCGAGACAAUGGAAAUAATT against Phtf1", "z-score": "inactive: 1.22"},
      {"sequence": "CCUUGGAUGCCUUUUACUGTT against Olfr1428", "z-score": "inactive: 0.797"},
      {"sequence": "GGGUUGCCAUCGAGACAAGTT against Rdbp", "z-score": "inactive: 0.577"},
      {"sequence": "GGACAACUUCCUAGGGCUCTT against D9Ertd280e", "z-score": "inactive: -0.454"},
      {"sequence": "CGCACUUCAAGUUUAAUUGTT against Mmab", "z-score": "inactive: 1.02"},
      {"sequence": "GGUGAAAUCAGAAUUUGCGTT against Defb23", "z-score": "inactive: -0.132"},
      {"sequence": "GGUGUGGCUGUUCUGAUGATT against Olfr771", "z-score": "inactive: -1.93"},
      {"sequence": "CGACGACUAGACCUCAUCUTT against Dtx4", "z-score": "inactive: -0.0371"},
      {"sequence": "GGUUAUAAAAAACAACCUGTT against Cpne3", "z-score": "inactive: 0.0568"},
      {"sequence": "GGUCUCAGAGUACAUUUCCTT against Pde4a", "z-score": "inactive: -0.167"},
      {"sequence": "GUUGUUGCUGGACUUCUUGTT against Olfr1443", "z-score": "inactive: -0.0381"},
      {"sequence": "CAUAAUCUGCACUACAAGCTT against Olfr309", "z-score": "inactive: -0.764"},
      {"sequence": "GCAUGUGCUAUAAUGAUCATT against LOC432723", "z-score": "inactive: -0.698"},
      {"sequence": "GGGAGAACCUGGCAUUCCUTT against Col23a1", "z-score": "inactive: -1.59"},
      {"sequence": "GGACAGACGGUCUUCUAUATT against Znrd1", "z-score": "inactive: -1.72"},
      {"sequence": "GGUAGAACAGUGCUUAAAGTT against BC027231", "z-score": "inactive: -0.0219"},
      {"sequence": "CCACUAAAAUUGACAAUGATT against Plxna1", "z-score": "inactive: 0.344"},
      {"sequence": "GAAUGUCAGAACCAUCCUCTT against Cdc34", "z-score": "inactive: 1.45"},
      {"sequence": "GGAUAUCCGUGAGAUUUCATT against Timm10", "z-score": "inactive: -0.931"},
      {"sequence": "GCCUUCGAUAAAGUUUUCCTT against Sult2a2", "z-score": "inactive: 0.593"},
      {"sequence": "GGCAUUUGAGUGGACUGUUTT against C86302", "z-score": "inactive: -2.3"},
      {"sequence": "CCAAUAAUGGAAGAACCUCTT against Zzz3", "z-score": "inactive: -0.575"},
      {"sequence": "GGAUGUACCCUUAAUAAACTT against Gabra5", "z-score": "inactive: 0.36"},
      {"sequence": "GGAGAUCUUAGAGAAAUUATT against Pak1", "z-score": "inactive: -0.0368"},
      {"sequence": "GCAGAUGAGAGGAUCCUUATT against Nfatc2", "z-score": "inactive: 0.0866"},
      {"sequence": "CCGAACUUUCAUUCAAUAUTT against 6720456H20Rik", "z-score": "inactive: 0.555"},
      {"sequence": "GCUGCAUGAAGGUGCUAAATT against Pcmt1", "z-score": "inactive: 1.09"},
      {"sequence": "CGACUCAACUUCUCCCAUGTT against Pklr", "z-score": "inactive: 2.93"},
      {"sequence": "GGUGUACAGCUGUGACCUGTT against Chn1", "z-score": "inactive: -1.78"},
      {"sequence": "GCACCUUCAACCAACAAGGTT against Zcsl2", "z-score": "inactive: -0.466"},
      {"sequence": "CCCAACCUCAAUGAAACUATT against Arfip2", "z-score": "inactive: -0.517"},
      {"sequence": "GGAGGACUCAGCACUCUUUTT against E130311K13", "z-score": "inactive: -0.331"},
      {"sequence": "CCUUUGUGUCCUAACGGUGTT against 2410129E14Rik", "z-score": "inactive: 0.0419"},
      {"sequence": "GGAAUUUUCUGGAAAUCCATT against 4432405B04Rik", "z-score": "inactive: 0.1"},
      {"sequence": "GGAACAAUCACUCUUUGGCTT against Olfr123", "z-score": "inactive: 0.974"},
      {"sequence": "GGAAUUGCUGAGGCACUUCTT against Nfkbia", "z-score": "inactive: -1.05"},
      {"sequence": "GGAGGUUUUCCGAAGUAUUTT against Pnpt1", "z-score": "inactive: 0.149"},
      {"sequence": "GGAAUCUGUGUAUAAUCUUTT against Dst", "z-score": "inactive: -0.0108"},
      {"sequence": "GCACUAAUGACUACAUCCGTT against Cklfsf4", "z-score": "inactive: 1.42"},
      {"sequence": "GGAGAAAUCCGUCUGACCATT against Pcdhb12", "z-score": "inactive: 0.189"},
      {"sequence": "GGCUGUAGUCAUAAGCACUTT against Ppp1r11", "z-score": "inactive: -0.675"},
      {"sequence": "GGAUAUCCUUUCAAUAGAATT against Mcf2", "z-score": "inactive: 0.0729"},
      {"sequence": "GGAAGAACAAUUGUGGCAUTT against Abca9", "z-score": "inactive: -0.319"},
      {"sequence": "GGAAGACAAUGAACUUGUUTT against Loxhd1", "z-score": "inactive: -1.17"},
      {"sequence": "CCUAAGGCAAUCCCUAUUGTT against 2210415K24Rik", "z-score": "inactive: -0.439"},
      {"sequence": "GCAACAAGUUCCCAGUAUCTT against Dnahc1", "z-score": "inactive: -2.55"},
      {"sequence": "GGCAUUGUAACCCUUGUAATT against Zfp187", "z-score": "inactive: -0.901"},
      {"sequence": "GGAAGCUGGCAAGUUUAUGTT against 1700026D08Rik", "z-score": "inactive: -0.329"},
      {"sequence": "CCCAUGGAACGGGAAGCUUTT against Serpinb9d", "z-score": "inactive: 0.36"},
      {"sequence": "GGACAUUGACAAAAUCAUCTT against Sec14l2", "z-score": "inactive: 0.556"},
      {"sequence": "CCUCCUAAUAUGUUAAUACTT against Gmfb", "z-score": "inactive: -1.44"},
      {"sequence": "GCCAAACACUCGACUCUAATT against LOC432615", "z-score": "inactive: -0.086"},
      {"sequence": "GGUUACCCAACUUGAAGGATT against BC055447", "z-score": "inactive: -1.36"},
      {"sequence": "GGUUCUAUGUUGACAAUCATT against BC010311", "z-score": "inactive: 0.142"},
      {"sequence": "GGUACUCUCAUUAUCUUUCTT against Tlr8", "z-score": "inactive: -0.073"},
      {"sequence": "GGGUGAUAGCAAGACACAGTT against Olfr720", "z-score": "inactive: 0.646"},
      {"sequence": "GGUUCCUUCGUGAAUGUCATT against Glp1r", "z-score": "inactive: -1.47"},
      {"sequence": "GGACGAAUAGAAAUCAUAGTT against Cd84", "z-score": "inactive: -0.939"},
      {"sequence": "GGCUGACAGGAUUAUCACATT against Hibadh", "z-score": "inactive: 1.22"},
      {"sequence": "GGCAGCACUACAAAACUUGTT against 1700045I19Rik", "z-score": "inactive: -0.107"},
      {"sequence": "GGCUGUUCAUCAGCAGAUUTT against Nme6", "z-score": "inactive: 0.444"},
      {"sequence": "GGUUCAUUUCAGUUGGGUUTT against 2010110M21Rik", "z-score": "inactive: -1.32"},
      {"sequence": "GCAAGCAUAGAGCAAAUAUTT against Gosr2", "z-score": "inactive: -1.17"},
      {"sequence": "GCCGAAACCUCUAUAAGCUTT against 4833408A19Rik", "z-score": "inactive: 0.388"}
    ]}
  ]
}
